Reference: paper PMC12011380
Results are given in words; binding and its absence hold for the method and conditions named. In cells and extracts the contact can be indirect. These calls come from enrichment with a bait or labelling near it, and not all partners need be listed. Each block holds one molecule with its values, some of them ahead of it.

Amino acid sequences for entries named in this document (tags omitted).
UniProt Q14980: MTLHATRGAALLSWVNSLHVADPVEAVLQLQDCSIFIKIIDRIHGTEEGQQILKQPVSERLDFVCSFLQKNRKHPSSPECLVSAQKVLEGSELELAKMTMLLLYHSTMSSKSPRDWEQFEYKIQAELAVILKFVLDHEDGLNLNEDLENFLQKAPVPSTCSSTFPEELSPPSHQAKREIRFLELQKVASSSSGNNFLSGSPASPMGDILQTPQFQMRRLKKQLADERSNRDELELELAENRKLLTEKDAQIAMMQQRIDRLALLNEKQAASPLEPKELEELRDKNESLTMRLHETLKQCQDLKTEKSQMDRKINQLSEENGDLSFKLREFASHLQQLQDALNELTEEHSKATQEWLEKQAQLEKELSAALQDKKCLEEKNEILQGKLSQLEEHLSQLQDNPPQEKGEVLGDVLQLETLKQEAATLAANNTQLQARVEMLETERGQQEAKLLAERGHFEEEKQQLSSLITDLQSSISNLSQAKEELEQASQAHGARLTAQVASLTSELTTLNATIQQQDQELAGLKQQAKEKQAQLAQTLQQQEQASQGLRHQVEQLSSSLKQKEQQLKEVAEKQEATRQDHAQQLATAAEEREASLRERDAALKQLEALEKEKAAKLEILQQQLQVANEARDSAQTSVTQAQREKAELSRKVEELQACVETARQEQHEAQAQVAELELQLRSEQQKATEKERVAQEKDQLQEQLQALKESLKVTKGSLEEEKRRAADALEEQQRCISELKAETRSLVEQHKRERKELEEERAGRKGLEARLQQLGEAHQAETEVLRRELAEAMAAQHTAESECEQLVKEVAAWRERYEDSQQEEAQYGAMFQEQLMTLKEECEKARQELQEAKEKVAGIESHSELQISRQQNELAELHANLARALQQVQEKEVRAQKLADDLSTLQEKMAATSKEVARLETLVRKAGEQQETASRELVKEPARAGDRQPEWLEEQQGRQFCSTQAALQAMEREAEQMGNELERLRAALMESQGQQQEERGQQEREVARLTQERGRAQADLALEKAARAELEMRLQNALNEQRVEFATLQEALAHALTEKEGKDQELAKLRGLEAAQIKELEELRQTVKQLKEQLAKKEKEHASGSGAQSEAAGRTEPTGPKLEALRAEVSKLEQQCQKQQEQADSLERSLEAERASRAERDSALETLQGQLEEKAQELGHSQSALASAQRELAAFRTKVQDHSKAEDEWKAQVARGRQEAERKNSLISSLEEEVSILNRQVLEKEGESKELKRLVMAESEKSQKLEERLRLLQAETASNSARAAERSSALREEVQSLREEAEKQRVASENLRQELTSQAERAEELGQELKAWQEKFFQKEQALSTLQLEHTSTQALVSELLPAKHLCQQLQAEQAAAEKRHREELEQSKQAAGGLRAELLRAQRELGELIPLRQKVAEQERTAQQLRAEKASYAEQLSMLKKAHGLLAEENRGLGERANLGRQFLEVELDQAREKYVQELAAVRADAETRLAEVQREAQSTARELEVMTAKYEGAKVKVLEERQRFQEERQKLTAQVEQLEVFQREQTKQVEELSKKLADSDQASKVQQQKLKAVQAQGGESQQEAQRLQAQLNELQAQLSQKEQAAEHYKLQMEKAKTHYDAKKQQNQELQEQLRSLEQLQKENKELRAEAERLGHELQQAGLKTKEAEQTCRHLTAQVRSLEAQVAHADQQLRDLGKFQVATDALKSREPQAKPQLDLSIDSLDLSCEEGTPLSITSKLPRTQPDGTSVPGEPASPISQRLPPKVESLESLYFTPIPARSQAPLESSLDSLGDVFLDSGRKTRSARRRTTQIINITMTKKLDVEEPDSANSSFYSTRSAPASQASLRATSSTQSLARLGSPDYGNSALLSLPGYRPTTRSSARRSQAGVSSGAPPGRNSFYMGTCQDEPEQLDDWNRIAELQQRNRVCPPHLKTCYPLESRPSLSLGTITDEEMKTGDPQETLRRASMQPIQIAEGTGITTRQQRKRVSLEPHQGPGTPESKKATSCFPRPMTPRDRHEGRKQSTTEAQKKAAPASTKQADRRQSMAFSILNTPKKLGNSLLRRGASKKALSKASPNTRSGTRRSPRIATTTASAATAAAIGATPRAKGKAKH
UniProt Q9H2G2: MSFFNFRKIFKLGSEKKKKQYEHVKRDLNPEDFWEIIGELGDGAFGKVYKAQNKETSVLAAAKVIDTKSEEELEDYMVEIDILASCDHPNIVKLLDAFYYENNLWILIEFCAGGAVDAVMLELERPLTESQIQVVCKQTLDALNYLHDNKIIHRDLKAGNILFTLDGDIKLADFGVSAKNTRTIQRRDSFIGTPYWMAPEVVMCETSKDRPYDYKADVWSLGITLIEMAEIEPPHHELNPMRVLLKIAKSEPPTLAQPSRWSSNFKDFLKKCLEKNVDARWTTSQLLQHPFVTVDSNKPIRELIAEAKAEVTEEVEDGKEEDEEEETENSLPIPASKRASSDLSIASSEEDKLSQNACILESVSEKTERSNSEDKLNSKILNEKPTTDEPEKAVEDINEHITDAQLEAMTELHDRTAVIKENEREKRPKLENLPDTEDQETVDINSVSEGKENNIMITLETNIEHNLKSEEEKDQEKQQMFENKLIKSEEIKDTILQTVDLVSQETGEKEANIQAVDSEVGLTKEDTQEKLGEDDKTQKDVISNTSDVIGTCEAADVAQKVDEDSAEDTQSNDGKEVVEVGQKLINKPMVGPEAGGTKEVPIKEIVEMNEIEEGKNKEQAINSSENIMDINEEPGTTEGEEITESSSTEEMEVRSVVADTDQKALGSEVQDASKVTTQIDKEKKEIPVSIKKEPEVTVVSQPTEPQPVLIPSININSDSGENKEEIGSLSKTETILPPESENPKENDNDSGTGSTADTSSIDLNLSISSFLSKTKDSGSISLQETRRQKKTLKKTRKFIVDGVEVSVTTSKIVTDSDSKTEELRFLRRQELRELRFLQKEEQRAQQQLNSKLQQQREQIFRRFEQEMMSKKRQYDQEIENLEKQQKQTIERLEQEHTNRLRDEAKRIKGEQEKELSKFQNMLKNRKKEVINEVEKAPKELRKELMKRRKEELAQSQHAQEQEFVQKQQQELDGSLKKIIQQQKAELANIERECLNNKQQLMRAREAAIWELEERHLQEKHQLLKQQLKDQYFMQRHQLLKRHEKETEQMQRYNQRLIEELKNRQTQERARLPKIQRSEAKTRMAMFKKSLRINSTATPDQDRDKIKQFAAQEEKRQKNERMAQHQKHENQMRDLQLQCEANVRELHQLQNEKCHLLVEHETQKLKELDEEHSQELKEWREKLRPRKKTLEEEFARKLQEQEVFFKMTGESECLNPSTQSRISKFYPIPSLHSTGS
UniProt P53350: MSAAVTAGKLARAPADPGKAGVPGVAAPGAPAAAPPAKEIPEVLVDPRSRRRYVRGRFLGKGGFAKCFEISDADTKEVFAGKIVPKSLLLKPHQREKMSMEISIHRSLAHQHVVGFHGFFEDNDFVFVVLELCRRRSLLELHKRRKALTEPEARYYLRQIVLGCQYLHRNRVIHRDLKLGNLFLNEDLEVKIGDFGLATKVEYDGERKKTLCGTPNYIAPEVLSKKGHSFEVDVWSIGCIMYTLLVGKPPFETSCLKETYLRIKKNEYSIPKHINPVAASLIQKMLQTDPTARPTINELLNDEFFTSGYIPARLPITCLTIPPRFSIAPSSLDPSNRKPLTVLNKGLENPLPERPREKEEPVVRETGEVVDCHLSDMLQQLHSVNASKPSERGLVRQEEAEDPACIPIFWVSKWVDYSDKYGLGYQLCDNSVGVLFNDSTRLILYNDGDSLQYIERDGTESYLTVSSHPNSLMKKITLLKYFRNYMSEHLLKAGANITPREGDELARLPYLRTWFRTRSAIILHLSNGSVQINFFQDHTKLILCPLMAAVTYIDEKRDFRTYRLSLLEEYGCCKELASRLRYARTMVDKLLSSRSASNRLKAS

Columns and labels:
[1] = target: T1, FANCA (human (endogenous in HeLa)) (UniProt O15360); assay: affinity purification with mass spectrometry; independent analysis: endogenous FANCA-IP vs. IgG-IP from prometaphase (nocodazole-treated) HeLa cells; on-bead digestion, label-free LC-MS/MS, spectral counts
T1 sequence: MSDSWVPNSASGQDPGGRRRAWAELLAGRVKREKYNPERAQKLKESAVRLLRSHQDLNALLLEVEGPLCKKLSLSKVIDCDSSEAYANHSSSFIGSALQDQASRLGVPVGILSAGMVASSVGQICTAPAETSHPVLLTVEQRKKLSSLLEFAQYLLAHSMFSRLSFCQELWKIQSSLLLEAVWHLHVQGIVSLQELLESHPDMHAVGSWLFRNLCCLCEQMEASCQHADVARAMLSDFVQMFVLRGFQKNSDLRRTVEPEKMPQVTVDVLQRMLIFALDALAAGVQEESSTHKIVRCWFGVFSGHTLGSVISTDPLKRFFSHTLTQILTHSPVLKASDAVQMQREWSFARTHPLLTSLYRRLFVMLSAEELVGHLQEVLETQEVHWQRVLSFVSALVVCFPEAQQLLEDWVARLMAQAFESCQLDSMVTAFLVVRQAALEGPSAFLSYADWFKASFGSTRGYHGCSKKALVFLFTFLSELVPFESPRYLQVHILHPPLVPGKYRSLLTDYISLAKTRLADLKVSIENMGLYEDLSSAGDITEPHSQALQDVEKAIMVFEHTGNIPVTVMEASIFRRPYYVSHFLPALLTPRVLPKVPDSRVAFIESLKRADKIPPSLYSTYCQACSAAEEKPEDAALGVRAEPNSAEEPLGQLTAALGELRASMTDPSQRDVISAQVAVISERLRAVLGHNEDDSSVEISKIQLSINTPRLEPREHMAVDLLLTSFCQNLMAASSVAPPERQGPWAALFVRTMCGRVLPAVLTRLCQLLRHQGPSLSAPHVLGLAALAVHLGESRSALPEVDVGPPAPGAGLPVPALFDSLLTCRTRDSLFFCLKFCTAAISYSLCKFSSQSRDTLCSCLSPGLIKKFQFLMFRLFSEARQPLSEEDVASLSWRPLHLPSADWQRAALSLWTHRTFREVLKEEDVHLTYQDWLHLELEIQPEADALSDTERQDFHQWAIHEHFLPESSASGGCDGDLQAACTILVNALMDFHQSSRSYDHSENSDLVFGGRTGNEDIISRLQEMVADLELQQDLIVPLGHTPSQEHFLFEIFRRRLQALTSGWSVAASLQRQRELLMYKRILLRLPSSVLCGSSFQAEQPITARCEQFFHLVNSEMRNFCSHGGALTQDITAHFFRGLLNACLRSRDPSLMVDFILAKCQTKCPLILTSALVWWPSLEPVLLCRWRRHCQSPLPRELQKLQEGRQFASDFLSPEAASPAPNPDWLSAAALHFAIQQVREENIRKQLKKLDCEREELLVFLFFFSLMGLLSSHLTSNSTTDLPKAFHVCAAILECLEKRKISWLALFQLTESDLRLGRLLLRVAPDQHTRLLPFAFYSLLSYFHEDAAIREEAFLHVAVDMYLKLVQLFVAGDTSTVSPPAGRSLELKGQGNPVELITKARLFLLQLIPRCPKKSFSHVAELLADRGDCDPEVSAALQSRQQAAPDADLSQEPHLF

[2] = target: T1, FANCA (human (endogenous in HeLa)); assay: affinity purification with mass spectrometry; endogenous FANCA immunoprecipitated (protein A/G magnetic beads) from lysates of HeLa cells synchronized in G2 (Ro-3306), prometaphase (nocodazole) or metaphase (proTAME); IgG-IP control; on-bead digestion, TMTpro labelling, quantitative LC-MS/MS

- binding [1]: binds
Molecule: nuclear mitotic apparatus 1 (from UniProt Q14980 1-2115)

- binding [2]: binds
Molecule: SLK (from UniProt Q9H2G2 1-1235)

- binding [1]: binds
- binding [2]: binds
Molecule: polo-like kinase 1 (from UniProt P53350 1-603)

- binding [2]: binds
B1: TTK (protein, UniProt P33981 1-857)
chain: MESEDLSGRELTIDSIMNKVRDIKNKFKNEDLTDELSLNKISADTTDNSGTVNQIMMMANNPEDWLSLLLKLEKNSVPLSDALLNKLIGRYSQAIEALPPDKYGQNESFARIQVRFAELKAIQEPDDARDYFQMARANCKKFAFVHISFAQFELSQGNVKKSKQLLQKAVERGAVPLEMLEIALRNLNLQKKQLLSEEEKKNLSASTVLTAQESFSGSLGHLQNRNNSCDSRGQTTKARFLYGENMPPQDAEIGYRNSLRQTNKTKQSCPFGRVPVNLLNSPDCDVKTDDSVVPCFMKRQTSRSECRDLVVPGSKPSGNDSCELRNLKSVQNSHFKEPLVSDEKSSELIITDSITLKNKTESSLLAKLEETKEYQEPEVPESNQKQWQSKRKSECINQNPAASSNHWQIPELARKVNTEQKHTTFEQPVFSVSKQSPPISTSKWFDPKSICKTPSSNTLDDYMSCFRTPVVKNDFPPACQLSTPYGQPACFQQQQHQILATPLQNLQVLASSSANECISVKGRIYSILKQIGSGGSSKVFQVLNEKKQIYAIKYVNLEEADNQTLDSYRNEIAYLNKLQQHSDKIIRLYDYEITDQYIYMVMECGNIDLNSWLKKKKSIDPWERKSYWKNMLEAVHTIHQHGIVHSDLKPANFLIVDGMLKLIDFGIANQMQPDTTSVVKDSQVGTVNYMPPEAIKDMSSSRENGKSKSKISPKSDVWSLGCILYYMTYGKTPFQQIINQISKLHAIIDPNHEIEFPDIPEKDLQDVLKCCLKRDPKQRISIPELLAHPYVQIQTHPVNQMAKGTTEEMKYVLGQLVGLNSPNSILKAAKTLYEHYSGGESHNSSSSKTFEKKRGKK
